Measurements: PMC11612440
Results are given in words; binding and its absence hold for the method and conditions named. For some assays here: Binding seen in cells or lysates may run through a third protein. Some entries that bind do so weakly or less than the wild type.

Sequences of proteins named here, by UniProt entry; tags and fusion partners are left off. A change or cut given only in a name is not applied to a line headed by its entry.
UniProt Q99PV8: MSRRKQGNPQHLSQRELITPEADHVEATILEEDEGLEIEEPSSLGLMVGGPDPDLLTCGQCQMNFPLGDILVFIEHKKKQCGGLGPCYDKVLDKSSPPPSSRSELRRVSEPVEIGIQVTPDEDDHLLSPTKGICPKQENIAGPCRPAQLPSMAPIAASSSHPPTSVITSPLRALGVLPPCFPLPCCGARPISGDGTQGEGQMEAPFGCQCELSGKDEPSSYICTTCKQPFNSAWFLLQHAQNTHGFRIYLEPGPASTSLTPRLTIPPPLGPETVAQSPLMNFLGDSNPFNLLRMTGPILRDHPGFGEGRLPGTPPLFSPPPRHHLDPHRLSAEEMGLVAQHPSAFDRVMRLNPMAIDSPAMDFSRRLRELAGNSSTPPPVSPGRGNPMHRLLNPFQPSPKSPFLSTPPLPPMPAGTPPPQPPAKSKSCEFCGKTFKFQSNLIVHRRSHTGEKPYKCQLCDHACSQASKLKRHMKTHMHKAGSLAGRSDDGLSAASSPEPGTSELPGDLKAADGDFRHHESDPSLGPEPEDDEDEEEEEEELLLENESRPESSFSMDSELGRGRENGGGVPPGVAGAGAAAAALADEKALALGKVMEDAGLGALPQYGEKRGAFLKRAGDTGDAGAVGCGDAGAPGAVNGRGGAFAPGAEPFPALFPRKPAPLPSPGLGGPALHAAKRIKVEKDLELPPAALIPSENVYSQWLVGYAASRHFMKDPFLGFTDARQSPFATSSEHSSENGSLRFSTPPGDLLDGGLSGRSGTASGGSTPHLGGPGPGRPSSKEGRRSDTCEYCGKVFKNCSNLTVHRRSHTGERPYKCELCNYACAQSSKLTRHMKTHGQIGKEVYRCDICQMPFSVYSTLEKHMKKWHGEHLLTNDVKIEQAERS
UniProt Q02248: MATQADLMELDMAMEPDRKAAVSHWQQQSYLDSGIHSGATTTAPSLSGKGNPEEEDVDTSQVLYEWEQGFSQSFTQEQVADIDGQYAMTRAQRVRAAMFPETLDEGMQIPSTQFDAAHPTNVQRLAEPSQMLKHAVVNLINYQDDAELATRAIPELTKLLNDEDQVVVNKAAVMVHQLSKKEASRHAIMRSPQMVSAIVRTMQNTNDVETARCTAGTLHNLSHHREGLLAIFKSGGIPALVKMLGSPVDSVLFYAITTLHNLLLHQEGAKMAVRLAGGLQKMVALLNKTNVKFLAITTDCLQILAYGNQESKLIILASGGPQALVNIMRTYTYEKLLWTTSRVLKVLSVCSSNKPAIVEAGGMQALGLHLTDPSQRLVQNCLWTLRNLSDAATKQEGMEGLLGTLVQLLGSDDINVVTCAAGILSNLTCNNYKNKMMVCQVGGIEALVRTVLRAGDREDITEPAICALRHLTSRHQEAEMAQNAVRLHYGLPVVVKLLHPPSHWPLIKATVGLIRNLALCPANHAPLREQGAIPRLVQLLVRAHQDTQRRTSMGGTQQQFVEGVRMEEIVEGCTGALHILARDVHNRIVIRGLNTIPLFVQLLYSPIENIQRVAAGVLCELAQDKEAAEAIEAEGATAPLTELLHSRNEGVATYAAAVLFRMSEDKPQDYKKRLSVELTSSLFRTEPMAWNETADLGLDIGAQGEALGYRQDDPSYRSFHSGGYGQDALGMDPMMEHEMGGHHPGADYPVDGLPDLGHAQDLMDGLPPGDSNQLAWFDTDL
UniProt O09106: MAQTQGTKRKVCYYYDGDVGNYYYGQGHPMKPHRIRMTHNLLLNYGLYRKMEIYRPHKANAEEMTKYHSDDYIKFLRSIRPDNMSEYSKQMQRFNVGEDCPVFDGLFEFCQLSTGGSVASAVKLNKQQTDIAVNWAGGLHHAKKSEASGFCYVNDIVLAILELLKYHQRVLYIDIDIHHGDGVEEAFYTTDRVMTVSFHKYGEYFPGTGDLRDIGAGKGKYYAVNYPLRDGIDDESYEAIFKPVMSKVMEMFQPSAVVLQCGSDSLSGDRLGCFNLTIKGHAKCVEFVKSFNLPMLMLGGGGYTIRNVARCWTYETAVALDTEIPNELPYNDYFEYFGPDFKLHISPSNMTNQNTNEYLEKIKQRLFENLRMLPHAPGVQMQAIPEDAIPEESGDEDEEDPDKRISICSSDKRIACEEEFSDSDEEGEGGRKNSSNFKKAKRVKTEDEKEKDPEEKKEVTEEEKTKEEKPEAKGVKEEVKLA
UniProt Q924A0: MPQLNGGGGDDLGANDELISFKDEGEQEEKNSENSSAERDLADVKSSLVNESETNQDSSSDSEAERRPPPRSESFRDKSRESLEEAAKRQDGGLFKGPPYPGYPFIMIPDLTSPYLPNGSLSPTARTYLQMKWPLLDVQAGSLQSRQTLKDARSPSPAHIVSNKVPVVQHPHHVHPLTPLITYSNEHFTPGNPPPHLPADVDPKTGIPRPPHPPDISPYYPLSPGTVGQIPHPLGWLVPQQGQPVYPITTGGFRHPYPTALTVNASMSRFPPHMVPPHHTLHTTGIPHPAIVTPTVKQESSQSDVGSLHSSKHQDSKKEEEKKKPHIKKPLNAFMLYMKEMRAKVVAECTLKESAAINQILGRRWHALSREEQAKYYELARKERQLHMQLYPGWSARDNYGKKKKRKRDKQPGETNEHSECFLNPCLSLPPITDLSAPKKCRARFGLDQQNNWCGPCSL

Experiments:
[1] = molecular target: Bcl11b, ectopically overexpressed (experiments of Appendix Fig. S4) (mouse) (UniProt Q99PV8); assay: co-IP; Appendix Fig. S4B-D; ectopically overexpressed Bcl11b, with or without Wnt3a; cells and constructs in the legend, not shown
[2] = molecular target: Bcl11b-Flag (mouse Bcl11b fused with Flag tag, doxycycline-induced in intestinal organoids) (mouse) (UniProt Q99PV8); assay: co-IP; lysate of doxycycline-induced (3 days) Bcl11b-Flag organoids; anti-Flag antibody on Dynabeads Protein A/G, overnight 4 °C; IP lysis buffer 10 mM Tris-HCl pH 7.5, 100 mM NaCl, 0.5% NP-40, 1 mM EDTA; immunoblotting
[3] = molecular target: BCL11B protein, MBP-tag-fused recombinant (pETMBP.3C-Bcl11b) (mouse) (UniProt Q99PV8); assay: SPR; Bcl11b immobilised on CM5 chip (10 mM sodium acetate pH 5.0); analytes serially diluted in PBST (PBS, 0.05% Tween-20), 30 μL/min for 2 min; 25 °C; Biacore 8K plus; both purified

binding [2]	binding [3]	Substance	further results
		β-catenin (experiments of Appendix Fig. S4B-D) (from UniProt Q02248 1-781)	binding [1]: binds
binds		β-catenin, endogenous (mouse intestinal organoids and crypts) (from UniProt Q02248 1-781)	
	binds	β-catenin, MBP-tag-fused recombinant (pETMBP.3C-β-catenin) (from UniProt Q02248 1-781)	
	binds	HDAC1, MBP-tag-fused recombinant (pETMBP.3C-Hdac1) (from UniProt O09106 1-482)	
binds		TCF4, endogenous (mouse intestinal organoids and crypts) (from UniProt Q924A0 1-459)	
